Measurements published in article PMC9988348.
For at least one entry, the source does not settle the construct or the ends of the probe.

By UniProt entry, the sequences of proteins in these tests, tags left out. Where a name states a change or a piece, a line headed by the entry shows the natural chain unless it says otherwise.
UniProt P0A6X3: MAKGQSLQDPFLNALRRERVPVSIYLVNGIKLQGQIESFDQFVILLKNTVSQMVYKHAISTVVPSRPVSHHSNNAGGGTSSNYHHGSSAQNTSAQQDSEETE

Target: Hfq (UniProt P0A6X3)
Assay: footprinting (lead acetate)
Conditions: 1 uM Hfq, yeast tRNA 0.15 mg/ml competitor, Footprint: about 0.2 pmol 5'-32P oppA RNA with 1 uM Hfq, 10 min 37 C, then 10 mM PbAc 2 min, recombinant protein, label: 5'-32P, probe letters rebuilt from the primers and the genome

“GGGAUCGACAUAAGGUGAUCGUCUGAAUCACCAGAAUAAAUAAAGUCGGUGAUAGUAAUACGUAACGAUAAAGUAACCUGACAGCAGAAAGUCUCCGAGCCUGUGCAGGGUCCCAAUCCGGGAUUACACAUGCUGGUUAAUACCAGUAAUUAUAAUGAGGGAGUCCAAAAAACAAUGACCAACAUCACCAAGAGAAGUUUAGUAGCAGCUGGCGUUCUGGCUGCGCUAAUGGCAGGGAAUGUCGCGCUGGCAGCUGAUGUACCCGCAGGCGUCACACUGGCGGAAAAACAAACACUGGUACGUAACAAUGGUUCAGAAG [oppA 5'UTR RNA from cleavage site +341 (γ-oppA)]”: binds.
